{"sequences": {"note": "Amino acid sequences for entries named in this document (tags omitted). A change or cut given only in a name is not applied to a line headed by its entry.", "UniProt Q9NW38": "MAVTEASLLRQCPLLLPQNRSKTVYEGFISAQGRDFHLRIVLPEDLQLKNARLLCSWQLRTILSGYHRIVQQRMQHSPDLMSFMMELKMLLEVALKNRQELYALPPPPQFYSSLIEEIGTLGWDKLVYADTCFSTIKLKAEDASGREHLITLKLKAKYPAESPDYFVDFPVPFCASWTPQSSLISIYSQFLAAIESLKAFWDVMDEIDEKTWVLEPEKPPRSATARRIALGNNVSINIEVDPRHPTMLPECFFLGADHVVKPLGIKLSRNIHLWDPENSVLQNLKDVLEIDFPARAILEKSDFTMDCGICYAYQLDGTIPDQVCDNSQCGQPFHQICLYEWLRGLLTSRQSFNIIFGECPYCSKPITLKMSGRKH", "UniProt Q8IW50": "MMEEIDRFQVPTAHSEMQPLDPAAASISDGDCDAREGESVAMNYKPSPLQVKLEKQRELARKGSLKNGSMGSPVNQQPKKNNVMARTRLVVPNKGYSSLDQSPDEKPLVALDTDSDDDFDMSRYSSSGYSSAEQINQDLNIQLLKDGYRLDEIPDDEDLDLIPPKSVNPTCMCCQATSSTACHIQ", "UniProt Q8TDW7": "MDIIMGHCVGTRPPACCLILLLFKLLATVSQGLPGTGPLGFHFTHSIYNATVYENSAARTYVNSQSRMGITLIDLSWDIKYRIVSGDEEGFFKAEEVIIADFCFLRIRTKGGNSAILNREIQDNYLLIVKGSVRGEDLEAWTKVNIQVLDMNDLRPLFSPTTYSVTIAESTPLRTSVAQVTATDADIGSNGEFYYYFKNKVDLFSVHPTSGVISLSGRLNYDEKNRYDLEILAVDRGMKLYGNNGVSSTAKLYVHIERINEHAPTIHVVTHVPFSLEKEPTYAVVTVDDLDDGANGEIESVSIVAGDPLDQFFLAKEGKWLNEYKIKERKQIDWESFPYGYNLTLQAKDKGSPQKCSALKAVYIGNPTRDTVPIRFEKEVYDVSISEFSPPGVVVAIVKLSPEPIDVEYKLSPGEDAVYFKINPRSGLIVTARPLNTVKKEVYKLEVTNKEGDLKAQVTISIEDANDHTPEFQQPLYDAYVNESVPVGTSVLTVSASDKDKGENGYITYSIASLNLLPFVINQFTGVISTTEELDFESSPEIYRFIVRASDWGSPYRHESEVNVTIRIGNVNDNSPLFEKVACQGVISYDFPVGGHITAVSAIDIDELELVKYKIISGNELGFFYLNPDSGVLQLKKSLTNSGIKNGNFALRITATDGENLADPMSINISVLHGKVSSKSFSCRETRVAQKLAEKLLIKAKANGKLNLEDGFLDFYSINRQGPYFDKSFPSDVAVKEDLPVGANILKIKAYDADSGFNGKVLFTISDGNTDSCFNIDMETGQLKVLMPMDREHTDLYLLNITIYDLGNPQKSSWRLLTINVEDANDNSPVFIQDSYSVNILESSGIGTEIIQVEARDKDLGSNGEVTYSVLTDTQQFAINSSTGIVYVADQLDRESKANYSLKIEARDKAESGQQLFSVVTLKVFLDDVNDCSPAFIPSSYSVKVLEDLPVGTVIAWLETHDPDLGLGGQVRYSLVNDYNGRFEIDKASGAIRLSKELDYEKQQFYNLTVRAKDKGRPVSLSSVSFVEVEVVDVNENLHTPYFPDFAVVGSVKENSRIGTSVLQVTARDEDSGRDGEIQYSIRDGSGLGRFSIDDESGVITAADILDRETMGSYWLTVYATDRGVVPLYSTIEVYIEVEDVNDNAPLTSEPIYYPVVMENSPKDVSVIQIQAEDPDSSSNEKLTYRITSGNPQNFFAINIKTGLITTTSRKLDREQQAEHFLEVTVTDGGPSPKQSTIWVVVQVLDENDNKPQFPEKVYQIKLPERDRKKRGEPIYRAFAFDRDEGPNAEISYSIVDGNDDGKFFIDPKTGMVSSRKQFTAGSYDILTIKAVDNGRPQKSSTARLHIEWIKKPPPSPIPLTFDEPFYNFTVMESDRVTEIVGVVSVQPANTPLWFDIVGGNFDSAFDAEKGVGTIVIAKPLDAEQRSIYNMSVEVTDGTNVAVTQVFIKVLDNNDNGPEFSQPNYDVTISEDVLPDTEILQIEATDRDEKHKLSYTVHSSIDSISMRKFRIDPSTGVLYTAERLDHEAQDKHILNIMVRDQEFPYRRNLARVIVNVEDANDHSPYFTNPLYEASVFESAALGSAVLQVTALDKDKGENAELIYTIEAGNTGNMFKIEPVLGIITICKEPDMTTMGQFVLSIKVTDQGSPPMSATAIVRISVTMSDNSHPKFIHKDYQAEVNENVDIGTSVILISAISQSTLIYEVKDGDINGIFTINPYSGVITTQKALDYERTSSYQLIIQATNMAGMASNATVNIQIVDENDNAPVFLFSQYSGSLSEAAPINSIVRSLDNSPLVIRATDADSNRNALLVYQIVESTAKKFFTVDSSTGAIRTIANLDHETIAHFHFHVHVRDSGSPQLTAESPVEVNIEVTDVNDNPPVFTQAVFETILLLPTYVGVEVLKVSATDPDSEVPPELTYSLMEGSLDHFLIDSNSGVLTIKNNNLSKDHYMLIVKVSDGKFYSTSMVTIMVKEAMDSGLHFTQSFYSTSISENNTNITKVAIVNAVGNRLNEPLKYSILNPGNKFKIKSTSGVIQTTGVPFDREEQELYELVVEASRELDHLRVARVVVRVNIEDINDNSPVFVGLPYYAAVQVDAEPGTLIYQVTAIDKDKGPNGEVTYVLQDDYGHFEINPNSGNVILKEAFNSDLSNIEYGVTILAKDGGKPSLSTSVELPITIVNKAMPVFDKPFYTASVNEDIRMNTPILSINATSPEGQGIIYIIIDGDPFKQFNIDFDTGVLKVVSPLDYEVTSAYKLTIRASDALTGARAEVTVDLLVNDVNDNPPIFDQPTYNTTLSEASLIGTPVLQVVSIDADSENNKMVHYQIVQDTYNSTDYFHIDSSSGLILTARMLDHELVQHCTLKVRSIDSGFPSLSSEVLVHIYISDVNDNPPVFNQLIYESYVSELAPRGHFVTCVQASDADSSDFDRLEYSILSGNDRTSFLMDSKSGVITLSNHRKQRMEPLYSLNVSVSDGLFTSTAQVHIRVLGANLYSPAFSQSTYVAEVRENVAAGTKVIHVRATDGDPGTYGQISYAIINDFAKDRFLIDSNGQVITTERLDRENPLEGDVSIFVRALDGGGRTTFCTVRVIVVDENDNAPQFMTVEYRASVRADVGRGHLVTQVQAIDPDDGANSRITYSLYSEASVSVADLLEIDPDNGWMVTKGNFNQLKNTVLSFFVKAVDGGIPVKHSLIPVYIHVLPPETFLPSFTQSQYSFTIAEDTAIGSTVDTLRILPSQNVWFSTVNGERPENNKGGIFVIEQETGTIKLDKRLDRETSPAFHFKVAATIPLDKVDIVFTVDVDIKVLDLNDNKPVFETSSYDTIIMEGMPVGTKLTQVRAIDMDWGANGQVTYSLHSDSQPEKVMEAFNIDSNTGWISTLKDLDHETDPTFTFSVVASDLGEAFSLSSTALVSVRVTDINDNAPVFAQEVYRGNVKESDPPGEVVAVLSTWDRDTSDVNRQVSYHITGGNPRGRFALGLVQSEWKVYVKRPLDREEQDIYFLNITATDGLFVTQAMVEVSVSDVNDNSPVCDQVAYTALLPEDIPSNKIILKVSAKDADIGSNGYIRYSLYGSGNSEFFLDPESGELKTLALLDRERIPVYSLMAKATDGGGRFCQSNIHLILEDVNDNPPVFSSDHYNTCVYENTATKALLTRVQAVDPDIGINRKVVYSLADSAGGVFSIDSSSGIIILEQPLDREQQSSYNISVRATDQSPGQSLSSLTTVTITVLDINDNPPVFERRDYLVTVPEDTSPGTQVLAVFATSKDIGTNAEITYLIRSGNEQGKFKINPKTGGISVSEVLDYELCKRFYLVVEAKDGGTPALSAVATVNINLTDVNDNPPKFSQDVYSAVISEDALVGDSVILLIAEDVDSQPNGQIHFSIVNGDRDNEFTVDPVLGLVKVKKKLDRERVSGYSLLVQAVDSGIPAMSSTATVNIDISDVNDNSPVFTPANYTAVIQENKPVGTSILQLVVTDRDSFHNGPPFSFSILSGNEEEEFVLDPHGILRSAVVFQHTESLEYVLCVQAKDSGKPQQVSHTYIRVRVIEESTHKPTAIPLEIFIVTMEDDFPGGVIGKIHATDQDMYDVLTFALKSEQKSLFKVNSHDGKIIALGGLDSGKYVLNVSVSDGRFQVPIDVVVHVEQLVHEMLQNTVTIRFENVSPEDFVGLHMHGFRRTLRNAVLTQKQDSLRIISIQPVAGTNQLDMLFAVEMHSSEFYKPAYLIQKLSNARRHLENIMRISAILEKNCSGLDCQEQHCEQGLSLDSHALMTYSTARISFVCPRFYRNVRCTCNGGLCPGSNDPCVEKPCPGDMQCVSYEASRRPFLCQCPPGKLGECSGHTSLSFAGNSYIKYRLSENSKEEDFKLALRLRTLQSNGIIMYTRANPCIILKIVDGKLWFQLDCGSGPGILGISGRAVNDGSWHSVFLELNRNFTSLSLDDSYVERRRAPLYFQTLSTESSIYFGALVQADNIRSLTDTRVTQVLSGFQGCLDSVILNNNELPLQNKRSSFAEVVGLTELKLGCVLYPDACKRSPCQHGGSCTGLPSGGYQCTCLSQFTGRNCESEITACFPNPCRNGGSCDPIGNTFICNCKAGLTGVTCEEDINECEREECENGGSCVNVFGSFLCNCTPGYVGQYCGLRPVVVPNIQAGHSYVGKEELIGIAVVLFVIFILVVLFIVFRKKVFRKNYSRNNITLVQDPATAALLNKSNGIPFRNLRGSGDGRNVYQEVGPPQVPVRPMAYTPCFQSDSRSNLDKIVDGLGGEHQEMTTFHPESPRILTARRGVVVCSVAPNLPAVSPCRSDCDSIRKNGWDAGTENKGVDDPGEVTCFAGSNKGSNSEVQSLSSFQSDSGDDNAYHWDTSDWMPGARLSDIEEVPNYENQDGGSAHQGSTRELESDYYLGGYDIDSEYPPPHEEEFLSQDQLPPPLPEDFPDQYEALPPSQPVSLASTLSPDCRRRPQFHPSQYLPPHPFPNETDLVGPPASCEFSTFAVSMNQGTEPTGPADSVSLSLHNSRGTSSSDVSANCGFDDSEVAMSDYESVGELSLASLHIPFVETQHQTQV", "UniProt Q96CD0": "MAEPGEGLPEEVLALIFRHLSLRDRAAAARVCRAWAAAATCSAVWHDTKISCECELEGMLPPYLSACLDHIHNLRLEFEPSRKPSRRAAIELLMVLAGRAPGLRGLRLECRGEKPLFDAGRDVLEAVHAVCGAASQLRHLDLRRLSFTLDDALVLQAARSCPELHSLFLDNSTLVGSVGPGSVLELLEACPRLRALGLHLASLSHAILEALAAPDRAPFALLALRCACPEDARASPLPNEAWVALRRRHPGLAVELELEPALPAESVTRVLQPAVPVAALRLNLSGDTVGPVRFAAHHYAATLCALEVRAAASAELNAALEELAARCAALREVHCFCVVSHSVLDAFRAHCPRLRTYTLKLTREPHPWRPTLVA", "UniProt Q9H4M3": "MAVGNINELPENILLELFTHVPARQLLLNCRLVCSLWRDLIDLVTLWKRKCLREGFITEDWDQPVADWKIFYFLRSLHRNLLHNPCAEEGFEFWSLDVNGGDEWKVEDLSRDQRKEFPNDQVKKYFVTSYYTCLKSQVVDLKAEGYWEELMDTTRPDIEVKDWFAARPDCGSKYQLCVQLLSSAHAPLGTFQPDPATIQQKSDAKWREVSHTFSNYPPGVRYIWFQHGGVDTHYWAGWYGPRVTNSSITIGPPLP", "UniProt P16591": "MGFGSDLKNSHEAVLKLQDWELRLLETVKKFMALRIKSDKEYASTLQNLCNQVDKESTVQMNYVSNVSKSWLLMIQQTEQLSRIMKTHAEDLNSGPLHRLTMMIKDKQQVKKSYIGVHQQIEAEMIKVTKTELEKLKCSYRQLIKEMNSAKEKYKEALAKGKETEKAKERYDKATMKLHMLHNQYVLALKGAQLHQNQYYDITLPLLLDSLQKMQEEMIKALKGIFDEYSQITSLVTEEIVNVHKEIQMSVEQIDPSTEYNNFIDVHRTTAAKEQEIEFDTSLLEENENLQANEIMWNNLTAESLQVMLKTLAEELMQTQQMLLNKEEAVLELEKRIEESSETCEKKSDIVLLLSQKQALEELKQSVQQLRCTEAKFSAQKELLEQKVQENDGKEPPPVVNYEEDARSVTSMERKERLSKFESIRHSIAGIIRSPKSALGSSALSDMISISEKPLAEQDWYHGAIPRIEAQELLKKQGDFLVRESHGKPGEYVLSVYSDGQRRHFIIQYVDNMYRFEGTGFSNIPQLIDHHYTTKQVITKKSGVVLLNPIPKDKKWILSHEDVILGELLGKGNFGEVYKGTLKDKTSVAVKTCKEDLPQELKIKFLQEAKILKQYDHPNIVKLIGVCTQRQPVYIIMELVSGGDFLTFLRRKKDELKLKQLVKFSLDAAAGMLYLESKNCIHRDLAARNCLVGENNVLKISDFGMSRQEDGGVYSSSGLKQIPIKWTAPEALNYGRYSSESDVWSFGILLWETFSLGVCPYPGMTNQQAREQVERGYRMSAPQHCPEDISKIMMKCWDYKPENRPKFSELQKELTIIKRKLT"}, "source": "the supplement of paper PMC10849652", "assay_in_all_cases": "log2 fold change, soluble protein after heating vs DMSO (PISA); higher = thermal stabilisation; K562 cells, 10 uM, 30 min; active = over 0.2 and 3.5 SD of the protein, either way, in both replicates (recomputed)", "key": {"[1]": {"compound": "CC1=C2C(=CC=C1)N=C(N(C2=O)C3=CC=CC=C3C)CN4C=NC5=C(N=CN=C54)N", "in_short": "(§1)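 K562 cells (2×10^6 cells/mL) were treated with 10 μM compound for 30 min, and aliquots were heated for 3 min over 48°C-58°C. Pooled aliquots were extracted in PBS with 0.5% NP-40 at 4°C, and the supernatant after 21,000xg for 90 min was measured by TMTpro 16plex LC-MS/MS with channel sums equalised. Reported thermal stability, relative to control samples and from duplicates, is a log2 fold change.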"}, "[2]": {"compound": "Cc1sc2c(c1C)C(c1ccc(Cl)cc1)=N[C@@H](CC(=O)OC(C)(C)C)c1nnc(C)n1-2", "in_short": "as §1"}, "[3]": {"compound": "CC1=C(SC2=C1C(=N[C@H](C3=NN=C(N32)C)CC(=O)N)C4=CC=C(C=C4)Cl)C", "in_short": "as §1"}, "[4]": {"compound": "c1ccc([C@@H]2C[C@H]2NC2CCNCC2)cc1", "in_short": "as §1"}, "[5]": {"compound": "C1=CC=C(C=C1)[C@H](COC2=CC3=C(C=C2)NC(=O)N3)NC(=O)C4=CC=CN(C4=O)CC5=CC(=C(C=C5)F)F", "in_short": "as §1"}}, "note": "The other results are listed elsewhere or left out.", "data": [{"target": "FAM83G (UniProt A6ND36)", "values": [{"measurement": "log2 fold change", "setting": "[1]", "result": "inactive: 0.192"}, {"measurement": "log2 fold change", "setting": "[2]", "result": "inactive: 0.059"}]}, {"target": "FGFR1OP2 isoform 2 (UniProt Q9NVK5)", "values": [{"measurement": "log2 fold change", "setting": "[3]", "result": "inactive: 0.152"}, {"measurement": "log2 fold change", "setting": "[4]", "result": "inactive: 0.186"}]}, {"target": "FANCL isoform 2 (UniProt Q9NW38)", "values": [{"measurement": "log2 fold change", "setting": "[3]", "result": "inactive: 0.138"}, {"measurement": "log2 fold change", "setting": "[1]", "result": "inactive: -0.112"}, {"measurement": "log2 fold change", "setting": "[4]", "result": "inactive: 0.156"}]}, {"target": "FNBP1 (UniProt Q96RU3)", "values": [{"measurement": "log2 fold change", "setting": "[2]", "result": "inactive: 0.091"}]}, {"target": "FAM98C (UniProt Q17RN3)", "values": [{"measurement": "log2 fold change", "setting": "[3]", "result": "inactive: -0.148"}, {"measurement": "log2 fold change", "setting": "[4]", "result": "inactive: 0.091"}]}, {"target": "FAM219A (UniProt Q8IW50)", "values": [{"measurement": "log2 fold change", "setting": "[5]", "result": "inactive: 0.056"}, {"measurement": "log2 fold change", "setting": "[3]", "result": "inactive: 0.043"}, {"measurement": "log2 fold change", "setting": "[2]", "result": "inactive: 0.026"}, {"measurement": "log2 fold change", "setting": "[4]", "result": "inactive: 0.073"}]}, {"target": "FAT3 isoform 1 (UniProt Q8TDW7)", "values": [{"measurement": "log2 fold change", "setting": "[5]", "result": "inactive: 0.27"}, {"measurement": "log2 fold change", "setting": "[1]", "result": "inactive: 0.079"}]}, {"target": "FBXL8 (UniProt Q96CD0)", "values": [{"measurement": "log2 fold change", "setting": "[5]", "result": "inactive: -0.14"}, {"measurement": "log2 fold change", "setting": "[3]", "result": "inactive: 0.252"}, {"measurement": "log2 fold change", "setting": "[2]", "result": "inactive: 0.148"}, {"measurement": "log2 fold change", "setting": "[4]", "result": "inactive: -0.028"}]}, {"target": "FBXO44 (UniProt Q9H4M3)", "values": [{"measurement": "log2 fold change", "setting": "[5]", "result": "inactive: -0.042"}, {"measurement": "log2 fold change", "setting": "[3]", "result": "inactive: 0.067"}, {"measurement": "log2 fold change", "setting": "[4]", "result": "inactive: -0.062"}]}, {"target": "FKRP (UniProt Q9H9S5)", "values": [{"measurement": "log2 fold change", "setting": "[5]", "result": "inactive: 0.124"}, {"measurement": "log2 fold change", "setting": "[1]", "result": "inactive: 0.008"}, {"measurement": "log2 fold change", "setting": "[2]", "result": "inactive: -0.039"}]}, {"target": "FER (UniProt P16591)", "values": [{"measurement": "log2 fold change", "setting": "[1]", "result": "inactive: 0.382"}]}]}
